Assay results: patent US12280036B2, “Using fatty acid synthase inhibitors to treat fibrosis” (Mayo Foundation for Medical Education and Research, priority 2016, dated 2025)
At least one compound was matched to its structure with a doubt left.

Tests used:
[1] = test system: FASN; assay: Western blot of TGFβ induced FASN expression in AKR-2B fibroblasts; type: cell-based, murine; conditions: TGFβ 10 ng/ml, Rapamycin 100 nM, Torin 200 nM, 24 hours
Method: (§1) Murine fibroblasts (AKR-2B) and human lung fibroblasts (MRCS) were transfected with either a nontargeting control siRNA (60 nmol/L) or with Smad2/3-targeting siRNA (60 nmol/L). After 72 hours of cultivation, the transient transfectants were stimulated in the absence or presence of 10 ng/ml TGFβ for 24 hours. Proteins were obtained from treated and control cells. Protein samples were Western blotted for FASN, pSmad2, pSmad3, and connective tissue growth factor (CTGF), and Western blotted for GAPDH as a loading control.
(§2) Murine fibroblasts (AKR-2B) and human lung fibroblasts (MRCS) were stimulated in the absence or presence of TGFβ (10 ng/ml) plus a PI3K inhibitor (LY294002; 10 μM), a MEK inhibitor (U0126; 10 μM), an AKT inhibitor (MK2206; 0.3 μM), a mTORC1 inhibitor (Rapamycin; 100 nM), or a mTORC1,2 inhibitor (Torin; 200 nM). Expression of pErk and pS6K/pS6K was determined at 1 and 6 hours post-stimulation while FASN, pSmad3, and GAPDH assessed at 24 hours. TGFβ induced FASN expression was abrogated in the presence of rapamycin or torin (FIGS. 3C and 3D).

[2] = test system: FASN; assay: Western blot of TGFβ induced FASN expression in MRCS lung fibroblasts; type: cell-based, human; conditions: TGFβ 10 ng/ml, Rapamycin 100 nM, Torin 200 nM, 24 hours
Method: as §1, §2

CO[C@H]1C[C@@H]2CC[C@@H](C)[C@@](O)(O2)C(=O)C(=O)N2CCCC[C@H]2C(=O)O[C@H]([C@H](C)C[C@@H]2CC[C@@H](O)[C@H](OC)C2)CC(=O)[C@H](C)/C=C(\C)[C@@H](O)[C@@H](OC)C(=O)[C@H](C)C[C@H](C)/C=C/C=C/C=C/1C [rapamycin, Rapamycin]
TGFβ induced FASN expression [1]: abrogated
TGFβ induced FASN expression [2]: abrogated
